These are yes or no findings as the source states them, for the method shown. Binding seen in cells or lysates may run through a third protein. Some entries that bind do so weakly or less than the wild type.
What was measured:
[1] = target: native full-length GB1a subunit from mouse brain membrane fraction (mouse) (UniProt Q9WV18); assay: pull-down from mouse brain lysate, immunoblot
[2] = target: native full-length GB1a subunit from mouse brain membrane fraction (mouse) (UniProt Q9WV18); assay: pull-down from membrane fraction of wild type mouse brains, immunoblot

Sequences of proteins named here, by UniProt entry; tags and fusion partners are left off. Residues count along the entry.
UniProt Q9WV18, residues 20-960: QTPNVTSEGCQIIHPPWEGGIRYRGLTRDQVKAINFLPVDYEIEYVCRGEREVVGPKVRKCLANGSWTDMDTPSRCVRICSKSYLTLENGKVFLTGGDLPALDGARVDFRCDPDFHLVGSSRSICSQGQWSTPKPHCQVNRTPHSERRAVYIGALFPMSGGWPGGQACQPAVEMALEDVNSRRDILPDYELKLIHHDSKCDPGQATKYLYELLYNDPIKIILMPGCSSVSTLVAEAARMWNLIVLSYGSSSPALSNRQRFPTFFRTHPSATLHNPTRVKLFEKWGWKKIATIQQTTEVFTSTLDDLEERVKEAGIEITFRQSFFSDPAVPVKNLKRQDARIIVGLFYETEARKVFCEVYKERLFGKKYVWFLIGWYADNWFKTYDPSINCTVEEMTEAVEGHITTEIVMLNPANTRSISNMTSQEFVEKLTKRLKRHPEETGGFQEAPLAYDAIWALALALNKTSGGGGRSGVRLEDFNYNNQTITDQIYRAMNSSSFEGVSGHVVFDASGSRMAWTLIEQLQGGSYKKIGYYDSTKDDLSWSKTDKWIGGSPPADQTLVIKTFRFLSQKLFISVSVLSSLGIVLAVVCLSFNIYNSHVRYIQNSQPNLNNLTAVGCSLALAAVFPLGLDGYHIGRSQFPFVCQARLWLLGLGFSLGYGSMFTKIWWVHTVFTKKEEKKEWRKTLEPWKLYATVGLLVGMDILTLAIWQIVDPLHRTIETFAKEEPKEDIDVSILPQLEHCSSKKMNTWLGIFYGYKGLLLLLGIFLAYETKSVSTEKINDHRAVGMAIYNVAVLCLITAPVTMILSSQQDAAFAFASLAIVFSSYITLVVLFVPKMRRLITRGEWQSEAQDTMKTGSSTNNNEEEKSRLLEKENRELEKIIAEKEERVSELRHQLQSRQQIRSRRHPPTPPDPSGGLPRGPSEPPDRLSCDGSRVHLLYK

- binding [1]: binds
- binding [2]: binds
B1: AJAP-1WT comprising a C-terminal Cys and a PEG2 linker, immobilized on Dynabeads M-270 Epoxy beads (peptide)
peptide: ETEFIAWGPTGDEDC
modifications: PEG2 linker and C-terminal Cys; covalently loaded on Dynabeads M-270 Epoxy beads

Source: patent US20260193293A1, “PEPTIDES CAPABLE OF INHIBITING PROTEIN-PROTEIN INTERACTIONS AT GABAB1A SUBUNIT AND USES THEREOF” (UNIVERSITY OF COPENHAGEN, priority 2022, published 2026)
